# Counter-ions that a name gives are not always drawn. The list shows a part of the results. Single values are uncertain here, since repeats match poorly.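 Cells: ReNCell VM human fetal ventral-midbrain neural progenitors, differentiated mitogen-free. Blinded raters compared doublecortin-stained (early neurons) or tyrosine hydroxylase-stained (dopaminergic neurons) images with untreated wells, where 0 means no change. After repeats and both raters were averaged, compounds scoring 2 or above became hits for retesting.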
# Key:
# ReNCell VM [1] = experiment: neuronal differentiation score (DCX+ cell fraction vs untreated, manual image score) (score (-3 to 3)); higher = more neuronal differentiation; conditions: 2 uM, 2 weeks
# ReNCell VM [2] = experiment: dopaminergic neuron differentiation score (TH+ cell fraction vs untreated, manual image score) (score (0 to 3)); higher = more TH+ dopaminergic neuron differentiation; conditions: 2 uM, 4 weeks, BDNF 10 ng/ml + GDNF 10 ng/ml
smiles,measurement,setting,value
NC(=O)NC1NC(=O)NC1=O (stereo not given) [Allantoin],neuronal differentiation score,ReNCell VM [1]; library: Prestwick,inactive: 0
same,dopaminergic neuron differentiation score,ReNCell VM [2]; library: Prestwick,inactive: 0
CCN(CC)CCCCC1CCN(CC(=O)N2c3ccccc3C(=O)Nc3cccnc32)CC1,neuronal differentiation score,ReNCell VM [1]; library: Tocriscreen,inactive: 0
same,dopaminergic neuron differentiation score,ReNCell VM [2]; library: Tocriscreen,inactive: 0
N=C(N)c1ccc(N2CCN(C3CCN(CC(=O)O)CC3)CC2)cc1,neuronal differentiation score,ReNCell VM [1]; library: Tocriscreen,inactive: -1
same,dopaminergic neuron differentiation score,ReNCell VM [2]; library: Tocriscreen,inactive: 0
CCCCC(=O)Oc1ccccc1C(=O)O,neuronal differentiation score,ReNCell VM [1]; library: Spectrum,inactive: 0
same,dopaminergic neuron differentiation score,ReNCell VM [2]; library: Spectrum,inactive: 0
CCc1cccc2c3c([nH]c12)C(CC)(CC(=O)O)OCC3 (stereo not given),neuronal differentiation score,ReNCell VM [1]; library: Spectrum,inactive: 0
same,dopaminergic neuron differentiation score,ReNCell VM [2]; library: Spectrum,inactive: 0
CC(=O)OCC(=O)[C@@]1(O)CC[C@H]2[C@@H]3CCC4=CC(=O)C=C[C@]4(C)[C@@]3(F)[C@@H](O)C[C@@]21C [Isoflupredone acetate],neuronal differentiation score,ReNCell VM [1]; library: Prestwick,inactive: 0
same,dopaminergic neuron differentiation score,ReNCell VM [2]; library: Prestwick,inactive: 0
Nc1nc(-c2ccc(Cl)c(Cl)c2)c(-c2ccncc2)s1 [CGH 2466 dihydrochloride],neuronal differentiation score,ReNCell VM [1]; library: Tocriscreen,inactive: 0
same,dopaminergic neuron differentiation score,ReNCell VM [2]; library: Tocriscreen,inactive: 0
CN1CCCN=C1/C=C/c1cccs1 [Pyrantel tartrate],neuronal differentiation score,ReNCell VM [1]; library: Prestwick,inactive: 0
same,dopaminergic neuron differentiation score,ReNCell VM [2]; library: Prestwick,inactive: 0
CC1(C)[C@@H](O)CC[C@]2(C)[C@H]3C(=O)C=C4[C@H]5C[C@@](C)(C(=O)O)CC[C@]5(C)CC[C@@]4(C)[C@]3(C)CC[C@@H]12 [18alpha-GLYCYRRHETINIC ACID],neuronal differentiation score,ReNCell VM [1]; library: Spectrum,inactive: 0
same,dopaminergic neuron differentiation score,ReNCell VM [2]; library: Spectrum,inactive: 0
C[C@@H]1CCC[C@H](C)N1NC(=O)c1ccc(Cl)c(S(N)(=O)=O)c1 [Clopamide],neuronal differentiation score,ReNCell VM [1]; library: Prestwick,inactive: 0
same,dopaminergic neuron differentiation score,ReNCell VM [2]; library: Prestwick,inactive: 0
O=C(O)c1cn(C2CC2)c2cc(N3CCNCC3)c(F)cc2c1=O,neuronal differentiation score,ReNCell VM [1]; library: Spectrum,inactive: 0
same,dopaminergic neuron differentiation score,ReNCell VM [2]; library: Spectrum,inactive: 0
CC(=O)Nc1ccc(OCC(O)CNC(C)C)cc1 (stereo not given) [Practolol],neuronal differentiation score,ReNCell VM [1]; library: Prestwick,inactive: 0
same,dopaminergic neuron differentiation score,ReNCell VM [2]; library: Prestwick,inactive: 0
CC1(C)[C@@H](O[C@H]2O[C@H](C(=O)O)[C@@H](O)[C@H](O)[C@H]2O[C@@H]2O[C@H](C(=O)O)[C@@H](O)[C@H](O)[C@H]2O)CC[C@]2(C)[C@H]3C(=O)C=C4[C@@H]5C[C@@](C)(C(=O)O)CC[C@]5(C)CC[C@@]4(C)[C@]3(C)CC[C@@H]12 [Glycyrrhizic acid],neuronal differentiation score,ReNCell VM [1]; library: Phytochemical,inactive: 0
same,dopaminergic neuron differentiation score,ReNCell VM [2]; library: Phytochemical,inactive: 0
CS(=O)(=O)CCNCc1nc(-c2ccc3ncnc(Nc4ccc(OCc5cccc(F)c5)c(Cl)c4)c3c2)cs1,neuronal differentiation score,ReNCell VM [1]; library: Tocriscreen,inactive: 0
same,dopaminergic neuron differentiation score,ReNCell VM [2]; library: Tocriscreen,inactive: 0
Sc1nc2ccccc2s1,neuronal differentiation score,ReNCell VM [1]; library: Spectrum,inactive: 0
same,dopaminergic neuron differentiation score,ReNCell VM [2]; library: Spectrum,inactive: 0
C[C@H](CCC(=O)O)[C@H]1CC[C@H]2[C@@H]3CC[C@@H]4CCCC[C@]4(C)[C@H]3CC[C@]12C,neuronal differentiation score,ReNCell VM [1]; library: Spectrum,inactive: 0
same,dopaminergic neuron differentiation score,ReNCell VM [2]; library: Spectrum,inactive: 0
C[C@H](N[C@@H](CCc1ccccc1)C(=O)O)C(=O)N1CCC[C@H]1C(=O)O,neuronal differentiation score,ReNCell VM [1]; library: Spectrum,inactive: 0
same,dopaminergic neuron differentiation score,ReNCell VM [2]; library: Spectrum,inactive: 0
NC[C@H]1O[C@H](O[C@H]2[C@H](O)[C@@H](O[C@H]3O[C@H](CO)[C@@H](O)[C@H](N)[C@H]3O)[C@H](N)C[C@@H]2N)[C@H](N)C[C@@H]1O [Tobramycin],neuronal differentiation score,ReNCell VM [1]; library: Prestwick,inactive: 0
same,dopaminergic neuron differentiation score,ReNCell VM [2]; library: Prestwick,inactive: 0
CCN(CCCc1ccccc1)CCCc1ccccc1 [Alverine citrate salt],neuronal differentiation score,ReNCell VM [1]; library: Prestwick,inactive: 0
same,dopaminergic neuron differentiation score,ReNCell VM [2]; library: Prestwick,inactive: 0
CCC(=O)OCN1C(=O)C=CC1=O,neuronal differentiation score,ReNCell VM [1]; library: Tocriscreen,inactive: 0
same,dopaminergic neuron differentiation score,ReNCell VM [2]; library: Tocriscreen,inactive: 0
CC(=O)O[C@H]1C[C@@]2(C)[C@@H](C[C@@H](O)[C@H]3[C@@]4(C)CC[C@@H](O)[C@@H](C)[C@@H]4CC[C@@]32C)/C1=C(\CCC=C(C)C)C(=O)O [fusidic acid],neuronal differentiation score,ReNCell VM [1]; library: Natural,inactive: 0
same,dopaminergic neuron differentiation score,ReNCell VM [2]; library: Natural,inactive: 0
Nc1ccc(O)c(C(=O)O)c1,neuronal differentiation score,ReNCell VM [1]; library: Spectrum,inactive: 0
same,dopaminergic neuron differentiation score,ReNCell VM [2]; library: Spectrum,inactive: 0
C[n+]1c2cc(N)ccc2cc2ccc(N)cc21,neuronal differentiation score,ReNCell VM [1]; library: Spectrum,inactive: 0
same,dopaminergic neuron differentiation score,ReNCell VM [2]; library: Spectrum,inactive: 0
O=C(O)Cc1ccc(-c2ccccc2)cc1,neuronal differentiation score,ReNCell VM [1]; library: Spectrum,inactive: 0
same,dopaminergic neuron differentiation score,ReNCell VM [2]; library: Spectrum,inactive: 0
C[C@]12CC[C@@H]3c4ccc(OS(=O)(=O)O)cc4CC[C@H]3[C@@H]1CCC2=O,neuronal differentiation score,ReNCell VM [1]; library: Spectrum,inactive: 0
same,dopaminergic neuron differentiation score,ReNCell VM [2]; library: Spectrum,inactive: 0
NNCCc1ccccc1,neuronal differentiation score,ReNCell VM [1]; library: Spectrum,inactive: 0
same,dopaminergic neuron differentiation score,ReNCell VM [2]; library: Spectrum,inactive: 1
Nc1nc(N)c2nc(-c3ccccc3)c(N)nc2n1,neuronal differentiation score,ReNCell VM [1]; library: Spectrum,inactive: 0
same,dopaminergic neuron differentiation score,ReNCell VM [2]; library: Spectrum,inactive: 0
C[N+](C)(C)CC(=O)O,neuronal differentiation score,ReNCell VM [1]; library: Spectrum,inactive: 0
same,dopaminergic neuron differentiation score,ReNCell VM [2]; library: Spectrum,inactive: 0
CC(C)C[C@H](NC(=O)[C@@H](O)[C@H](N)Cc1ccccc1)C(=O)O [Bestatin hydrochloride],neuronal differentiation score,ReNCell VM [1]; library: LOPAC,inactive: 0
same,dopaminergic neuron differentiation score,ReNCell VM [2]; library: LOPAC,inactive: 0
CN[C@H](CC(C)C)C(=O)N[C@H]1C(=O)N[C@@H](CC(N)=O)C(=O)N[C@H]2C(=O)N[C@H]3C(=O)N[C@H](C(=O)N[C@H](C(=O)O)c4cc(O)cc(O)c4-c4cc3ccc4O)[C@H](O)c3ccc(c(Cl)c3)Oc3cc2cc(c3O[C@@H]2O[C@H](CO)[C@@H](O)[C@H](O)[C@H]2O[C@H]2C[C@](C)(N)[C@H](O)[C@H](C)O2)Oc2ccc(cc2Cl)[C@H]1O [Vancomycin hydrochloride],neuronal differentiation score,ReNCell VM [1]; library: Prestwick,inactive: 0
same,dopaminergic neuron differentiation score,ReNCell VM [2]; library: Prestwick,inactive: 1

# From the supplement of paper PMC4635364
